Laboratory results as given in patent publication US20180044415A1.
These are yes or no findings as the source states them, for the method shown. Some results given as binding are weak or reduced against the parent protein; the word gives no strength.

By UniProt entry, the sequences of proteins in these tests, tags left out. Where a name states a change or a piece, a line headed by the entry shows the natural chain unless it says otherwise.
UniProt Q9NYJ7: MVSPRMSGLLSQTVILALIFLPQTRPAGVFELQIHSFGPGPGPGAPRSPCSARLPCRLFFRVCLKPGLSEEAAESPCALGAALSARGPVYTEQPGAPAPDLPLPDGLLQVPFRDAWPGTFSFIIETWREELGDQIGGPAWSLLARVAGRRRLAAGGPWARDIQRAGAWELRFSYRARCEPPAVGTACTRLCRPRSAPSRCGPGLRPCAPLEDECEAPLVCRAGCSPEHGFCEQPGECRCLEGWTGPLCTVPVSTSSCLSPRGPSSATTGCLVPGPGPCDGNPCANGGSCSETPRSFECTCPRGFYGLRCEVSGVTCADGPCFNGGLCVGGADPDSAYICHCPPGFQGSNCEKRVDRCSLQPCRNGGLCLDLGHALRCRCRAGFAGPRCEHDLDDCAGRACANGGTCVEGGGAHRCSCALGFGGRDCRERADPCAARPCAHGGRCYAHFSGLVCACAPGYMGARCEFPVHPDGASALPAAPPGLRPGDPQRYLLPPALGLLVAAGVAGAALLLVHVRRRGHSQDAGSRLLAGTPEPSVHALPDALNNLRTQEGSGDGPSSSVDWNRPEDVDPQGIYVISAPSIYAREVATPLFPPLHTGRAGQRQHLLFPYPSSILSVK

molecular target: human DLL3 (immobilized human DLL3 or h293-hDLL3 cells) (human) (UniProt Q9NYJ7); experiment: hybridoma screening on immobilized human DLL3 or on h293-hDLL3 cells

| binding | Binder |
| --- | --- |
| binds | SC16.31 (antibody, V domains shown) VH: EVQLQQSGPELVKPGASVKISCKASGYSFSRFYMHWVKQSPENSLEWIGEINPSTGGTSYNQKFKGKATLTVDKSSSTAYMQLKSLTSEESAVYYCTRGYGSNWYFDVWGAGTTVTVST VL: DIVLTQSPLSLPVNIGDQASISCKSTKSLLNSDGFTYLDWYLQRPGQSPQFLIYLVSNRFSGVPDRFSGSGSGTDFTLKISRVEAEDLGVYYCFQSNYLPLTFGAGTKLELR |

molecular target: DLL3 protein (surface plasmon resonance, Example 3) (Homo sapiens (Human)) (UniProt Q9NYJ7); experiment: surface plasmon resonance

| binding | Binder |
| --- | --- |
| binds | chimeric anti-DLL3 antibody SC16.56 (antibody, human IgG1, kappa, V domains shown) VH: QIQLVQSGPELKKPGETVKISCKASGYTFTNYGMNWVKQAPGKGLKWMAWINTYTGEPTYADDFKGRFAFSLETSASTASLQIINLKNEDTATYFCARIGDSSPSDYWGQGTTLTVSS VL: SIVMTQTPKFLLVSAGDRVTITCKASQSVSNDVVWYQQKPGQSPKLLIYYASNRYTGVPDRFAGSGYGTDFSFTISTVQAEDLAVYFCQQDYTSPWTFGGGTKLEIRR |
| binds | chimeric anti-DLL3 antibody SC16.34 (antibody, human IgG1, kappa, V domains shown) VH: QIQLVQSGPELKRPGETVKISCKASGYTFTNYGMNWVKQAPGKGLKWMGWINTYTGDPTYADDFKGRFAFSLETSASTAYLQINNLKNEDTATYFCARIGGNSPSDYWGQGTSLTVSS VL: SIVMTQTPKFLLVSAGDRVTITCKASQSVSNDVAWYQQKPGQSPKLLIYYASNRYSGVPDRFTGSGYGTDFTFTISTVQAEDLAVYFCQQDYSSPWTFGGGTKLEIKR |
| binds | hSC16.34 (antibody, human IgG1, kappa, V domains shown) VH: QVQLVQSGAEVKKPGASVKVSCKASGYTFTNYGMNWVRQAPGQRLEWMGWINTYTGDPTYADDFKGRVTITRDTSASTAYMELSSLRSEDTAVYYCARIGGNSPSDYWGQGTTVTVSS VL: DIQMTQSPSSLSASVGDRVTITCKASQSVSNDVAWYQQKPGKVPKLLIYYASNRYSGVPSRFSGSGSGTDFTLTISSLQPEDVATYFCQQDYSSPWTFGGGTKVEIKR |
| binds | hSC16.56 (antibody, human IgG1, kappa, V domains shown) VH: QVQLVQSGAEVKKPGASVKVSCKASGYTFTNYGMNWVRQAPGQGLEWMGWINTYTGEPTYADDFKGRVTMTTDTSTSTAYMELRSLRSDDTAVYYCARIGDSSPSDYWGQGTLVTVSS VL: EIVMTQSPATLSVSPGERATLSCKASQSVSNDVVWYQQKPGQAPRLLIYYASNRYTGIPARFSGSGSGTEFTLTISSLQSEDFAVYYCQQDYTSPWTFGQGTKLEIKR |

Continued, binder first:

| Binder | binding |
| --- | --- |
| hSC16.25 (antibody, human IgG1, kappa, V domains shown) VH: QITLKESGPTLVKPTQTLTLTCTFSGFSLSTSGMGVGWIRQPPGKALEWLTDIWWDDNKYYNPSLKSRLTITKDTSKNQVVLTMTNMDPVDTATYYCARRVNYYYDPYYAMDYWGQGTLVTVSS VL: EIVLTQSPDFQSVTPKEKVTITCSASSSVSYMHWYQQKPDQSPKLLIKDSSKLASGVPSRFSGSGSGTDFTLTINSLEAEDAATYYCQQWSSNPLTFGQGTKLEIKR | binds |
| chimeric anti-DLL3 antibody SC16.15 (antibody, human IgG1, kappa, V domains shown) VH: QVQLQQSGAELAKPGASVKMSCKASGYTFTRYWIHWIKQRPGQGLEWIGYINPTTVYTEFNQNFKDKATLTADKSSTTASMQLSSLTSEDSAVYYCARGGSNFFDYWGQGTTLTVSS VL: DIQMTQSPASLAASVGETVAITCRASENIYYNLAWYQQKQGKSPQLLIYTANSLEDGVPSRFSGSGSGTQYSLKINSMQPEDSATYFCKQAYDVPPTFGGGTKLEIKR | binds |
| hSC16.13 (antibody, human IgG1, kappa, V domains shown) VH: QITLKESGPTLVKPTQTLTLTCTFSGFSLSTSGMGVGWIRQPPGKALEWLAHIWWDDVKRYSPSLKSRLTITKDTSKNQVVLTMTNMDPVDTATYYCARIVSFDNDVVSAMDYWGQGTLVTVSS VL: DIQMTQSPSSLSASVGDRVTITCSASSSVSYMYWYQQKPGKAPKLLIYLTSNLASGVPSRFSGSGSGTDFTLTISSLQPEDFATYYCQQWRSNPFTFGQGTKLEIKR | binds |
| hSC16.15 (antibody, human IgG1, kappa, V domains shown) VH: QVQLVQSGAEVKKPGASVKVSCKASGYTFTRYWIHWIRQAPGQGLEWMGYINPTTVYTEFNQNFKDRVTMTRDTSTSTVYMELSSLRSEDTAVYYCARGGSNFFDYWGQGTTVTVSS VL: AIQLTQSPSSLSASVGDRVTITCRASENIYYNLAWYQQKPGKAPKLLIYTANSLEDGVPSRFSGSGSGTDFTLTISSLQPEDFATYFCKQAYDVPPTFGGGTKLEIKR | binds |
| chimeric anti-DLL3 antibody SC16.25 (antibody, human IgG1, kappa, V domains shown) VH: QVTLKESGPGILQPSQTLSLTCSFSGFSLSTSGMGVGWIRQPSGEGLEWLTDIWWDDNKYYNPSLKSRLTISKDTSSNQVFLNITSVDTADTATYYCARRVNYYYDPYYAMDYWGQGTSVTVSS VL: QIVLTQSPAIMSASPGEKVTMTCSASSSVSYMHWYQQKSGTSPKRWIYDSSKLASGVPARFSGSGSGTSYSLTISSMEAEDAATYYCQQWSSNPLTFGAGTKLELKR | binds |
